Patent publication US10801050B2, “Microorganism modified for the assimilation of levulinic acid” (priority 2015, dated 2020)

B1: GLYA_CUPNH (protein, UniProt Q0K7W0 1-415, looked up)
Serine …: MFERSRFTIDQIDPEVFAAIQQENQRQEDHIELIASENYTSPAVMAAQGSQLTNKYAEGYPGKRYYGGCEYVDVVEQLAIDRVKQLFGAEAANVQPNSGSQANQGVYFAVLKPGDTIMGMSLAEGGHLTHGMALNMSGKWFNVVSYGLNAQEDIDYDALEKLAQEKKPKLIIAGASAFALRIDFERISKVAKSIGAYFMVDMAHYAGLIAAGVYPNPVPHADFVTTTTHKSLRGPRGGVILMKAEHEKAINSAIFPGIQGGPLMHVIAGKAVAFKEALTPEFKEYQQQVVKNAAVLAETLIARGLRIVSGRTESHVMLVDLRAKNITGKEAERILGEAHITVNKNAIPNDPEKPFVTSGIRLGSPAMTTRGFKEEEARIVGNLIADVLDNPHDAANIASVREQAAALTKRFPVYG
B2: EFTS_CUPNH (protein, UniProt Q0KA17 1-292, looked up)
Elongation factor Ts: MAAITASMVAELRAKTDAPMMECKKALTEADGDLDKAEELLRVKLGNKASKAASRVTAEGVVASFIDGTTGVLVELNCETDFVSKNDDFLAFSAKVAELIAKQNPADVAALSALEIDGVSVEATRTALIGKIGENLTIRRFARYANGGKLVSYLHGTRIGVMVEFDGDEAAAKDVAMHVAAMKPVSLSAEQVPADLIAKERSIAEQKAAESGKPAEIVAKMVEGSVQKYLKEVSLFNQPFVKNDKQTVEQMLKAANTTVKGFTLFVVGEGIEKKQDDFAAEVAAQVAAAQKG
B3: METK_CUPNH (protein, UniProt Q0KF39 1-387, looked up)
S-adenosylmethionine synthase: MANDFLFTSESVSEGHPDKVADQISDAVLDAILAQDKYARVAAETLCNTGLVVLAGEITTTANVDYIQIARDTIKRIGYDNTDYGIDYKGCAVLVAYDKQSPDIAQGVDRASDDYLNQGAGDQGLMFGYACDETPELMPFPIYYAHRLVERQSLLRRDGRLPWLRPDAKSQVTVRYVDGKPHSVDTVVLSTQHSPDITQAQIREAVIEEIIKPVLPAEMLKETKYLVNPTGRFVIGGPQGDCGLTGRKIIVDTYGGASPHGGGAFSGKDPSKVDRSAAYAARYVAKNVVASGLARQCQVQVSYAIGVARPINVTVYTEGTGKIPDAKIAELVQEHFDLRPKGIVQMLDLLRPIYEKTAAYGHFGREEPEFSWEATDKAAALRAAAGL
B4: DNAK_CUPNH (protein, UniProt Q0K757 1-650, looked up)
Chaperone protein DnaK: MGKIIGIDLGTTNSCVAILEGNTPKVIENSEGARTTPSIIAYMEDGEILVGAPAKRQAVTNPRNTLYAVKRLIGRKFEEKEVQKDIGLMPYSIVKADNGDAWVSVRDQKLAPPQVSAEVLRKMKKTAEDYLGEPVTEAVITVPAYFNDSQRQATKDAGRIAGLDVKRIINEPTAAALAFGMDKNEKGDRKIAVYDLGGGTFDISIIEIADVDGEKQFEVLSTNGDTFLGGEDFDQRIIDYIISEFKKDQGVDLSKDVLALQRLKEAAEKAKIELSSSQQTEINLPYITADASGPKHLNLKMTRAKLESLVEELITRTIEPCRIAIKDAGVKVSDIDDVILVGGMTRMPKVQEQVKEFFGKEARKDVNPDEAVAVGAAIQGSVLSGDRTDVLLLDVTPLSLGIETLGGVMTKMITKNTTIPTKHAQVFSTADDNQPAVTIKVFQGEREMASGNKLLGEFNLEGIPPAARGTPQIEVSFDIDANGILHVGAKDKATGKENRITIKANSGLSEDEIQRMVKDAEANAEEDKKARELADARNQADALIHSTKKALTEYGDKLEAGEKEKIEAAIKELEDAARGGDKAEIDAKVNALSEVSQKLGEKVYADMQAKAGEGATAGAAAGAGAAGGQQAQPQDDNVVDAEFKEVNDKK
B5: ILVC_CUPNH (protein, UniProt Q0KCU2 1-338, looked up)
Ketol-acid reductoisomerase …: MKVFYDKDADLSLIKGKNVTIIGYGSQGHAHALNLKDSGVNVTVGLRKSGASWNKAANAGLQVKEVAEAVKGADVVMILLPDEQIADVYKNEVHDNIKEGAALAFAHGFNVHYGAVIPRADLDVIMIAPKAPGHTVRATYTQGGGVPHLIAVHQNKSGAARDIALSYATANGGGRAGIIETNFREETETDLFGEQAVLCGGTVELIKAGFETLVEAGYAPEMAYFECLHELKLIVDLIYEGGIANMNYSISNNAEYGEYVTGPRVVTEETKKAMKQCLTDIQTGEYAKSFLLENKAGAPTLISRRRLTAEHQIEEVGAKLRAMMPWIAKNKMVDQSKN
B6: KDSA_CUPNH (protein, UniProt Q0KCE4 1-289, looked up)
2-dehydro-3-deoxyphosphooctona …: MKLCGFEAGLDKPFFLIAGPCVIESEQMALDTAGELKAITAELGIPFIYKSSFDKANRSSGKSFRGLGMEKGLEILATVKREIGVPVLTDIHEIDEIKPVAAVVDVLQTPAFLCRQTDFIRACAQSGKPVNIKKGQFLAPHDMKNVIDKARDAAREAGLPDDVFMACERGVSFGYNNLVSDMRSLAIMRETGAPVVFDATHSVQLPGGQGTSSGGQREFVPVLSRAAVATGVAGLFMETHPDPSKAMSDGPNAVPLSRMKELLAVLKELDTLVKRAGFLEDNFGWPACA
B7: LPXA_CUPNH (protein, UniProt Q0KA28 1-267, looked up)
Acyl-[acyl-carrier-protein]--U …: MTQIHPTALVDPKAELASDVTVGPFSIVGPNVRIGSGTRVGSHTTVEGYTTIGEGNTIGPYASVGGVPQDMKYRNEPTRLEIGDRNTIREFTTIHTGTVQDRGLTSLGNDNWIMAYVHIAHDCTVGNHTVFSSNAQIAGHVEVGDWAILGGMSGVHQFVRIGAHAMLGGASALVQDVPPFVIAASDKSGNKATPHGVNVEGLRRRGFDAGQIAALRQAYKLLYKSDLSFDEARNEITALLGQSDAGTAAPLRAFVDFLAATQRGIVR
B8: NDK_CUPNH (protein, UniProt Q0K958 1-141, looked up)
Nucleoside diphosphate kinase: MAIERTLSIIKPDAVAKNVIGQIYARFEAAGLKIVAAKMVHLSRGEAEQFYAVHKERPFFKDLVDFMVSGPVMIQALEGENAIAKNRDLMGATDPKKAEKGTIRADFADSIDANAVHGSDAAETAAVEVSFFFPGMNVYSR
B9: DAPD_CUPNH (protein, UniProt Q0KA05 1-275, looked up)
2,3,4,5-tetrahydropyridine-2,6 …: MTQALQALIDQAWEDRTSLSPKSAPNDIREAVANVISQLDSGALRVAEKQGKDWIVNQWIKKAVLLSFRLEDNAPMSAGGFAQFYDKVPTKFANWSADDFAKAGFRVVPPAVARRGSFIAKNAVLMPSYVNIGAYVDEGTMVDTWATVGSCAQIGKNVHLSGGVGIGGVLEPLQANPVIIEDNCFIGARSEVVEGVIVEENSVISMGVYLGQSTKIYDRETGEIHYGRVPAGSVVVAGNLPSKDGKYSLYCAVIVKKVDAQTRAKTSLNDLLRGD
B10: EFP_CUPNH (protein, UniProt Q0K8N9 1-186, looked up)
Elongation factor P: MKIAQELRVGNVFMIGGDPMVVQKAEYNKSGRNAAVVKMKYKNLLTDAPGESVFKADDKFEVVVLERRECTYSYFADPMYVFMDADYNQYEVEKDSMGDSLNYLEDGMNVEVVFYNDKAISVEMPTTLVREIVYTEPAVKGDTSSGKVLKGAKINTGFELQVPLFCNIGDKIEIDTRTGEYRSRAN

These molecules were tested on Ralstonia eutropha DSM428 (assay: Quantitative proteomics of Ralstonia eutropha DSM428 cultivated with or without levulinic acid (nanoLC-MS/MS)). Conditions: Ralstonia eutropha DSM428, shake flasks, LB rich medium, 0 g/L levulinic acid; nanoLC-MS/MS protein abundance.
Type: cell-based

Molecule | % of total proteins Without LA
B1 | 1.01 % of total proteins
B2 | 0.65 % of total proteins
B3 | 0.41 % of total proteins
B4 | 1.18 % of total proteins
B5 | 1.06 % of total proteins
B6 | 0.14 % of total proteins
B7 | 0.20 % of total proteins
B8 | 0.40 % of total proteins
B9 | 0.25 % of total proteins
B10 | 0.29 % of total proteins

Same assay, conditions: Ralstonia eutropha DSM428, shake flasks, LB rich medium, 5 g/L levulinic acid; nanoLC-MS/MS protein abundance

Molecule | % of total proteins With LA
B1 | 0.91 % of total proteins
B2 | 0.68 % of total proteins
B3 | 0.39 % of total proteins
B4 | 0.90 % of total proteins
B5 | 0.95 % of total proteins
B6 | 0.11 % of total proteins
B7 | 0.22 % of total proteins
B8 | 0.34 % of total proteins
B9 | 0.21 % of total proteins
B10 | 0.30 % of total proteins
